PubChem BioAssay AID602196 | INSERM, 2012

- Test: 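Knock-downs that protect lung cancer cells from cisplatin or sensitise them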
- Cells: human A549 lung cancer cells
- Reagent: siRNA pair against human genes
- Timing: 48 h transfection before cisplatin; time from cisplatin to read-out not stated
- Conditions: cisplatin at a dose killing half of control-siRNA cells; exact dose and duration not given
- Detection: 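Cisplatin cell death as a shift from the 50% death seen with control siRNA; siRNAs toxic or growth-blocking alone scored 0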
- Scale: two-siRNA summed score (-2 to +2): higher = both siRNAs protect from cisplatin killing; -2 means both sensitise; mean protection from cisplatin (shift in death) and protection from cisplatin (shift in death), siRNA C and protection from cisplatin (shift in death), siRNA D: higher = protection from cisplatin killing
- Rule for the call: 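Each siRNA scores 0 if harmful alone by LDH or WST-1, otherwise +1 if it reduces and -1 if it increases cisplatin killing; a gene is active when both siRNAs agree (sum +2 or -2)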
- Calls: active = both siRNAs shift cisplatin killing the same way; inactive = no consistent shift, or siRNA harmful alone
Shown is an unselected part of about 23,000 deposited reagents. Over the whole deposit, 455 (2%) are marked active. 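Active includes both protection and sensitisation; some change values fall well beyond the stated -50 to +50 range.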 Not stated in the record: the amount of reagent.

target	two-siRNA summed score (-2 to +2)	mean protection from cisplatin (shift in death) (%)	protection from cisplatin (shift in death), siRNA C (%)	protection from cisplatin (shift in death), siRNA D (%)	activity call
TMEM244 (GeneID 253582)	0	5.4	6.3	4.6	inactive
UBL7 (GeneID 84993)	0	8.6	12.8	4.5	inactive
ADH1C (GeneID 126)	-1	-5.9	-10.3	-1.4	inactive
LOC387789	0	3.3	5.1	1.4	inactive
LOC442129	0	21.5	10.7	32.2	inactive
EMD (GeneID 2010)	0	-6.8	-2.1	-11.5	inactive
SCGB1A1 (GeneID 7356)	0	-3.7	-19.4	12.1	inactive
GRHL3 (GeneID 57822)	0	4.9	-2.9	12.7	inactive
FER (GeneID 2241)	-1	-10	-5.6	-14.4	inactive
DNAJA4 (GeneID 55466)	0	-2.1	1.2	-5.5	inactive
CATSPERE (GeneID 257044)	1	5.3	-5.9	16.5	inactive
LMBR1 (GeneID 64327)	0	9	13.4	4.6	inactive
CTSC (GeneID 1075)	0	7	4.4	9.5	inactive
DLD (GeneID 1738)	1	17.7	20.2	15.1	inactive
CCR1 (GeneID 1230)	1	12.9	-4	29.7	inactive
PTDSS2 (GeneID 81490)	0	0.3	-4.9	5.6	inactive
C1orf105 (GeneID 92346)	1	12.9	16.1	9.7	inactive
LOC388657	0	11.5	9.9	13	inactive
MARK3 (GeneID 4140)	1	16.8	28.5	5.1	inactive
RCC1L (GeneID 81554)	-1	-9	2.4	-20.4	inactive
GAS2L2 (GeneID 246176)	0	4.5	7.1	1.8	inactive
AKAP19 (GeneID 84281)	0	-2.7	-10	4.5	inactive
LOC339047	0	9.4	14.5	4.4	inactive

Targets listed so far whose target name begins with G or g:
target	two-siRNA summed score (-2 to +2)	mean protection from cisplatin (shift in death) (%)	protection from cisplatin (shift in death), siRNA C (%)	protection from cisplatin (shift in death), siRNA D (%)	activity call
GRHL3 (GeneID 57822)	0	4.9	-2.9	12.7	inactive
GAS2L2 (GeneID 246176)	0	4.5	7.1	1.8	inactive
